Reference: publication PMC7819943, “Rice protein-binding microarrays: a tool to detect cis-acting elements near promoter regions in rice”
The list shows a part of the results.

Amino acid sequences for entries named in this document (tags omitted).
UniProt Q0JBA9, entry or part of it: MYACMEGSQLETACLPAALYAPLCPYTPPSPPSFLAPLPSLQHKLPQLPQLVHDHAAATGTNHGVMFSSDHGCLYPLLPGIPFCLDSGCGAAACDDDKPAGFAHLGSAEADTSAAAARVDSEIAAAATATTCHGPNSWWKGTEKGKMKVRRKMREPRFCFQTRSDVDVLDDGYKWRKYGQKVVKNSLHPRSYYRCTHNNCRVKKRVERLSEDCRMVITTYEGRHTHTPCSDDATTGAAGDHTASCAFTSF

target: OsWRKY34 (Oryza sativa, UniProt Q0JBA9 1-250); assay: protein-binding microarray (RPBM); PBS, 2% BSA, 51.3 ng/ul salmon testes DNA, 50 uM zinc acetate, 200 nM TF, 25 C, 1 h; high values mean tight binding; conditions: protein: recombinant; tags: N-terminal polyhistidine and DsRed monomer fusion (pET32a); label: CyDye5-dUTP incorporated in the synthesized complementary strand; 3' TTTTT single-stranded linker to array surface; dsDNA, one strand shown
How it was run: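 Transcription factors were made in E. coli BL21-CodonPlus as N-terminal fusions to a polyhistidine tag and DsRed, then purified on Ni–NTA. After primer extension with Cy5-dUTP and blocking with 2% BSA, a custom Agilent array was exposed for 1 h at 25 °C to 200 nM protein in PBS, 2% BSA, salmon testes DNA and 50 µM zinc acetate. Washed arrays were scanned on an Axon 4000B, and the binding signal is per-feature fluorescence intensity in arbitrary units.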

Sequence	binding signal
TCCCGCCACGCCACCCCACTGTTTCATTCCCTCGTGGCGCCGGAGTCACCTAGTGCAG	8160 fluorescence intensity (a.u.)
ATCAGTTTTTTGTCAGTTTTGCAATTGCAATTCCAACTTCCGGAGTCACCTAGTGCAG	10200 fluorescence intensity (a.u.)
ATTTAACTTTTATGAGTGTCGTATTATTCGCATGTTTTAACGGAGTCACCTAGTGCAG	8560 fluorescence intensity (a.u.)
CCTCCTCGTCCTTGGCCTCTTCGTTCCTTTTGTCGAATCTCGGAGTCACCTAGTGCAG	8430 fluorescence intensity (a.u.)
CCCTCTCTCTCCCCGTCGCGTAAGGCCGCTATAAATCAACCGGAGTCACCTAGTGCAG	8660 fluorescence intensity (a.u.)
TATCTCTTTTGCTATCGATTTCAGTGAGACCCCTGTGATGCGGAGTCACCTAGTGCAG	9110 fluorescence intensity (a.u.)
TTTGGTGTTCTTCGCTGCTGTGCGCGATCCGGTTTGGTGACGGAGTCACCTAGTGCAG	9350 fluorescence intensity (a.u.)
GCAGACAAGGCCAAATTTTCCATCTTCAACAGCACCATCTCGGAGTCACCTAGTGCAG	9200 fluorescence intensity (a.u.)
CTGACAACCTTTAGTACACCTGCTCTAACCGATTCTTACCCGGAGTCACCTAGTGCAG	10400 fluorescence intensity (a.u.)
TCTGCACGCCACTTGGGCTCCACCTTAAGACTGTGTTAACCGGAGTCACCTAGTGCAG	8720 fluorescence intensity (a.u.)
TCCATCTCCATTTTCCTCGCAATCATTCCGTTCAGTTATACGGAGTCACCTAGTGCAG	10100 fluorescence intensity (a.u.)
ACATTCATTGCCTTTTGAGCTTGACCCACACCACTCTGAGCGGAGTCACCTAGTGCAG	8610 fluorescence intensity (a.u.)
GCTAGGGTTTGGGAATTTGGTGTCGGCGTCGTCGTCGTCGCGGAGTCACCTAGTGCAG	10500 fluorescence intensity (a.u.)
TACCATCCCTCGCTATAGGAGTTTTTTGTTTTTAAGTAACCGGAGTCACCTAGTGCAG	9360 fluorescence intensity (a.u.)
TCTTACTCTCTCCATCCCAAAATGTTTGACGCCGTTGACTCGGAGTCACCTAGTGCAG	13400 fluorescence intensity (a.u.)
ATCGGTGCTGAAGCTTGGTTCCCATTTCCCGATCTTTTACCGGAGTCACCTAGTGCAG	8330 fluorescence intensity (a.u.)
GCTGGTTGGGCTGCCTCATGGGCTTTTGTGGGCCGTAGGCCGGAGTCACCTAGTGCAG	9270 fluorescence intensity (a.u.)
TTTGTGGGAGTGGCTTGTTGTTCTAGGAGAAATCGTGGTTCGGAGTCACCTAGTGCAG	9920 fluorescence intensity (a.u.)
GTTAACTTTTTAGAACATGTTTGACCGTTCGTCTTATTCACGGAGTCACCTAGTGCAG	8930 fluorescence intensity (a.u.)
AGCATCTCTCACACAATGTACTACGACCCTGTTTAGATCCCGGAGTCACCTAGTGCAG	9170 fluorescence intensity (a.u.)
GCAATTGGCGTCTGTGGTTTTTTTCCGTAATGATTTTTCACGGAGTCACCTAGTGCAG	9530 fluorescence intensity (a.u.)

Sequence	binding signal
TCTGAGAGCAGTAACGTTGACCAAGACCAAAGCAAACAACCGGAGTCACCTAGTGCAG	11600 fluorescence intensity (a.u.)
ATCATTAGACTTTACTATCCACTCCAAGTAAGGCATTTCCCGGAGTCACCTAGTGCAG	10000 fluorescence intensity (a.u.)
TAATCTCCTGCATCTTTGGCCCAATATTCTGGTCCACTCTCGGAGTCACCTAGTGCAG	8710 fluorescence intensity (a.u.)
GCTCACCACAGCCATTCGTCCCCGGGCCTCGCCGCGCCGCCGGAGTCACCTAGTGCAG	11100 fluorescence intensity (a.u.)
TGTCAGGTTCAGCCAACTCTTGCCGCTCTACCGTCTTCTCCGGAGTCACCTAGTGCAG	8850 fluorescence intensity (a.u.)
CTTAACGCAGCCGCAATCCACTTCTCTCGTCTCTTCTCTTCGGAGTCACCTAGTGCAG	9650 fluorescence intensity (a.u.)
TTGTTGCTGGTGATGTTGTTCTTTTCATTGTTCCCTTTCCCGGAGTCACCTAGTGCAG	9700 fluorescence intensity (a.u.)
CACCATAGTACATGTACAGTTCCATCCATCAGCCTCTATACGGAGTCACCTAGTGCAG	11000 fluorescence intensity (a.u.)
CTATATCTTGGAGATAAGTGGTGGTTTGTGATGAAATGTACGGAGTCACCTAGTGCAG	9050 fluorescence intensity (a.u.)
GCTAATGCCTGTGAGCCATGTTCATCACCTGTTTCTGTAGCGGAGTCACCTAGTGCAG	9740 fluorescence intensity (a.u.)
GGCGGCGCCGGCGCTCGTCCTGCCGCCACCGCCGCGGCCGCGGAGTCACCTAGTGCAG	8320 fluorescence intensity (a.u.)
CGAAATGGGAGGCGGGGTTTAGGGTTTCCGGCGGGGAGGGCGGAGTCACCTAGTGCAG	25200 fluorescence intensity (a.u.)
CATTTCTTCTGAGTATTCAATGTTTCGTCCCCACGAAAATCGGAGTCACCTAGTGCAG	8540 fluorescence intensity (a.u.)
CATCTTACTTAAGGTTGTTGGATCAACTCTTCCCTTCTTCCGGAGTCACCTAGTGCAG	8380 fluorescence intensity (a.u.)
CCAGAGTCTCACGGCAACCGTGTCCGTCCGCGCGCGCTCCCGGAGTCACCTAGTGCAG	8940 fluorescence intensity (a.u.)
TCTCTGAAGTGTTGTGGAGTTTTTTTTTCTTTGTTTAAATCGGAGTCACCTAGTGCAG	8440 fluorescence intensity (a.u.)
ACTAGTGAAGTGTTGCCCGTTGGGTTTGGTGGAGTTTGAACGGAGTCACCTAGTGCAG	8200 fluorescence intensity (a.u.)
GAAACAGAAGAATGGCTATGAGTTTGCCAAATCCTTCTATCGGAGTCACCTAGTGCAG	8780 fluorescence intensity (a.u.)
CGGTGTTGTAAATTGGGCCCATATGTCGTGTACATGCAAGCGGAGTCACCTAGTGCAG	8080 fluorescence intensity (a.u.)
CATCACATCACCAGAATCTATCACCTCTGTCACTGTTCTTCGGAGTCACCTAGTGCAG	11100 fluorescence intensity (a.u.)
ATAACATTAACTTCCCAGTTTTGGCACATCTTTACATATTCGGAGTCACCTAGTGCAG	10300 fluorescence intensity (a.u.)

Sequence	binding signal
ATCATGGCAGTCCCAACCCTCCACCTAGGATATTGTCTATCGGAGTCACCTAGTGCAG	8450 fluorescence intensity (a.u.)
TAATAGTATTTGTGTGTTTTTTCCGAGGTTTCTTGTGCTACGGAGTCACCTAGTGCAG	10500 fluorescence intensity (a.u.)
TCAGTGTACAATTTCATTTTGTGGCTTTTTAGGTTAGTCACGGAGTCACCTAGTGCAG	8800 fluorescence intensity (a.u.)
TCACATCCTGAACAACTTACTCCATTTTCTTTTCTATAGACGGAGTCACCTAGTGCAG	8130 fluorescence intensity (a.u.)
ACCATTTTCCCAAGAGATATCGCCATCACGATCTCCCGTACGGAGTCACCTAGTGCAG	8120 fluorescence intensity (a.u.)
TCCCGCTGCCGCCTCATTGCCCACCGCCCTTCCTGCCACACGGAGTCACCTAGTGCAG	9220 fluorescence intensity (a.u.)
CGCATTCCGTTCCGCCATTGCTGCCATGCCCGAGCTCGCGCGGAGTCACCTAGTGCAG	13000 fluorescence intensity (a.u.)
CTCCTCACGTGCATTGCCTCCATGCTGCTCTCTAATTTTCCGGAGTCACCTAGTGCAG	15900 fluorescence intensity (a.u.)
CGCATATTGGGATGCGAAGTCGTGACCTTGTTTGTATATCCGGAGTCACCTAGTGCAG	8200 fluorescence intensity (a.u.)
GATGATACGTTTATGCCGGTATACTCTGTATGTTAAGTCCCGGAGTCACCTAGTGCAG	8190 fluorescence intensity (a.u.)
ACGTACTGAAGCACTTCCGTGTAATTCTGCATCTGGTCAACGGAGTCACCTAGTGCAG	9220 fluorescence intensity (a.u.)
TATTCTTTTTGCTTGCTTGGCTCGTTGCTGTCTCCAGAAACGGAGTCACCTAGTGCAG	9080 fluorescence intensity (a.u.)
CTCTCTTTCATGCGGCCCAAGTCGGCCCAGCCTCAGCTGACGGAGTCACCTAGTGCAG	8640 fluorescence intensity (a.u.)
ACATAAGCATCCGAGGTCATTTCTATTGTTTCTTTTTGTACGGAGTCACCTAGTGCAG	13900 fluorescence intensity (a.u.)
GGGTGACCGGTTTTGTATAGTTAAGTAACCCCGTATATTTCGGAGTCACCTAGTGCAG	10600 fluorescence intensity (a.u.)
TCTCTCGACGCACGAGTTCAATTTCCACCGCCAGATCAACCGGAGTCACCTAGTGCAG	8710 fluorescence intensity (a.u.)
GCAAGCGCTCACCTCACCACCTCACCCTGCAGCGACAGAACGGAGTCACCTAGTGCAG	8330 fluorescence intensity (a.u.)
TTGGGTTTTACTTGCATAATTATTATTCAATTGCTTGATACGGAGTCACCTAGTGCAG	10500 fluorescence intensity (a.u.)
ACCGCCAGTTGCAAGTCCGTCCGCATACTTCAGCCGACATCGGAGTCACCTAGTGCAG	9840 fluorescence intensity (a.u.)
ATTCCATTTAAGTGACGGTATCGTAGCGTAGCCGGTTTTTCGGAGTCACCTAGTGCAG	8100 fluorescence intensity (a.u.)
ACACCTGGCGTCACGCCATTGGCTAGCACCCACTTTCCCGCGGAGTCACCTAGTGCAG	9770 fluorescence intensity (a.u.)

Pulled one by one from above:
Sequence	binding signal
CGAAATGGGAGGCGGGGTTTAGGGTTTCCGGCGGGGAGGGCGGAGTCACCTAGTGCAG	25200 fluorescence intensity (a.u.)
TCTTACTCTCTCCATCCCAAAATGTTTGACGCCGTTGACTCGGAGTCACCTAGTGCAG	13400 fluorescence intensity (a.u.)
CTTAACGCAGCCGCAATCCACTTCTCTCGTCTCTTCTCTTCGGAGTCACCTAGTGCAG	9650 fluorescence intensity (a.u.)
ACCATTTTCCCAAGAGATATCGCCATCACGATCTCCCGTACGGAGTCACCTAGTGCAG	8120 fluorescence intensity (a.u.)

(next part)

Sequence	binding signal
CCTCGATAGTTGTCTCCGTCATTAATAATTCTCGATTCACCGGAGTCACCTAGTGCAG	11200 fluorescence intensity (a.u.)
CATGTGCTAAAAAGTCAACGGTATCAAACATTTTTAAACGCGGAGTCACCTAGTGCAG	15800 fluorescence intensity (a.u.)
AACCTTCTATCCCACGGTAACAGCAGCAACACACATGTAACGGAGTCACCTAGTGCAG	9050 fluorescence intensity (a.u.)
CCTCGTCGCCGTGCTCGTCCTCGTCTACGTCCAGGAGAACCGGAGTCACCTAGTGCAG	8880 fluorescence intensity (a.u.)
TCACCTCGTCGACGTCATTCCATACGACTACGACTTTCAGCGGAGTCACCTAGTGCAG	8130 fluorescence intensity (a.u.)
CGTCCTTTTAATTCGTCGTCCAAACCAAACCCGCGCAAGCCGGAGTCACCTAGTGCAG	8040 fluorescence intensity (a.u.)
CAAATTGACACTACATCTAGCTAGCTAGCTAGCTTTGCTCCGGAGTCACCTAGTGCAG	8360 fluorescence intensity (a.u.)
ATCACCCCGCCTCCGCCTCCGCCGCTGGCTGCAGAGACACCGGAGTCACCTAGTGCAG	8200 fluorescence intensity (a.u.)
GGCGATACTTCTCTGCAGTACCTCCACACCGCCATGAGGACGGAGTCACCTAGTGCAG	9160 fluorescence intensity (a.u.)
AGATAGTTCTTGATATCCATGGACCATCATCAGCCATCTTCGGAGTCACCTAGTGCAG	9690 fluorescence intensity (a.u.)
TTCAGTTTGTTTCTATTAATATTGGTAGTTGTTTAATTTTCGGAGTCACCTAGTGCAG	10900 fluorescence intensity (a.u.)
CATACTCTATTGTCCTGTGCGGTTCATGCATGATTCATCTCGGAGTCACCTAGTGCAG	10100 fluorescence intensity (a.u.)
AAGTTGTACAAAAATTCGAGAATTAATTATAGGTCCTTTTCGGAGTCACCTAGTGCAG	8090 fluorescence intensity (a.u.)
TCCTACAAGTGGTATCAGAGCCTTGTTTTCTTCTTTGGATCGGAGTCACCTAGTGCAG	8620 fluorescence intensity (a.u.)
CCTCTCGCAACTAACCACGCCACGTATGCCGGGTCGCACCCGGAGTCACCTAGTGCAG	8040 fluorescence intensity (a.u.)
CCCAAAACCGATCCATTCATTCGCCAACCACGCCGTCCGCCGGAGTCACCTAGTGCAG	8790 fluorescence intensity (a.u.)
AATCGCCTATTGCTCCATGAATCACTCACTGAAAATGACTCGGAGTCACCTAGTGCAG	9250 fluorescence intensity (a.u.)
TCCAGCTCGATTGTCCGCTCCGAAATCCCCAACCTAGCACCGGAGTCACCTAGTGCAG	8460 fluorescence intensity (a.u.)
ACCTCTGCTCTATTAACTCTTGGCTACTCTCTCCTCTCTTCGGAGTCACCTAGTGCAG	9800 fluorescence intensity (a.u.)
CTACACGCATCATTCTTCCTCTTCCTCTTCTTAGGTCGCTCGGAGTCACCTAGTGCAG	10000 fluorescence intensity (a.u.)
AAGTTCATCTAAGGTCCCTTATCTTGTCGTTGAGTTTTAACGGAGTCACCTAGTGCAG	8670 fluorescence intensity (a.u.)
